# Screen size: about 53,000 sequences; about 3,700 (7%) were called active.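 How the source made its calls: active means gene knockdowns whose robust z-score for IL-1 alpha signal is at least 2 or at most -2, so actives lie on both sides; inactive means the rest.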 Some of the results follow.
# Assay: Components of the Cytosolic LPS Sensing Pathway: Gene Identification via Genome-wide siRNA Screen;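 further: robust z of the log signal after scaling to non-targeting control siRNA wells of the plate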
# Conditions: RAW264.7 macrophages, IL-1a HTRF, actives lie on both sides, screened at 100 nM (by protocol), cells primed 5 h with Pam3CSK4 first
# Method in brief: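 Using IL-1a HTRF as read-out, the screen measured release from RAW264.7 cells after 48h siRNA knockdown (100 nM), 5 h Pam3CSK4 priming and 24 h cytosolic LipidA. Values were expressed relative to negative-control wells as robust z-scores.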
row,Sequence,z-score
1,GCCACCAGUGAAUAAUACATT against Hyal6,inactive: 0.459
2,GGAAGCUCGACGGAAGUUCTT against Sik3,inactive: -1.45
3,GGUCUUUUAGAGUAGGAUUTT against Ranbp3l,inactive: -0.32
4,GCCAAUUAGCAUAUUUCAUTT against Slc16a4,inactive: 1.53
5,GCAGCUACGUAUACCAUGUTT against Gfm1,inactive: -0.788
6,GGAGCAAUGUGUUUUCUCUTT against Ppnr,inactive: -1.36
7,CCUCGUCUUAUUGAGGCUCTT against Dhrs1,inactive: -0.537
8,GGUCAUCGAAUCUGGAGUATT against Pyroxd1,inactive: -0.282
9,GGCAUCUCCCACAUUAGAGTT against Sell,inactive: 0.949
10,GGAAGACUUGGCUACACAATT against Rab40c,inactive: -1.04
11,GGCAAAAGACUGGUUUUGUTT against Nr2f2,inactive: 1.54
12,CCUAAAAGACUUUGGAGACTT against Arg2,inactive: -1.09
13,CCUCCUCUCUUACUACGAGTT against Nab2,inactive: 0.487
14,GCUAAUUUCUUGAGAAGCGTT against Dek,inactive: -0.0181
15,GGAGCUGCUCCCUCUAAUATT against Cbr1,inactive: -1.24
16,GGAACUAGAGCUGAUAAUATT against Smurf1,inactive: 0.155
17,GGAGCUUGAAAUGCUUGGUTT against Psmg1,inactive: -1.01
18,GCAGGAGGUUCGUGAUAUUTT against Pck2,inactive: -0.498
19,GGUUGGUGCUGGCUAACAUTT against Gabra2,inactive: -0.995
20,GGCAAGAUUACUGUUGUAGTT against Ndufaf4,inactive: -0.303
21,CCUGUAGCAUUACGUUAGCTT against Tnip3,inactive: -0.355
22,GGCUUUAUCCUGUCUGUGGTT against Slc10a2,inactive: -2

row,Sequence,z-score
1,CCCACUCCAAACAUCUAAATT against Gadd45b,inactive: -0.661
2,GGAAGUUGAUGAAUUCUUATT against Raet1a,inactive: -0.507
3,GCAAAUCAGUCUAUCGCUGTT against Mcpt8,inactive: 0.39
4,GGUAUACUCUUAGAGUAACTT against Klhl22,inactive: 0.526
5,GGAAAUCUUUGAGUUUGAATT against Clca1,inactive: -0.0578
6,GGUAUGAUCAAUGACUUACTT against Serpine1,inactive: -0.165
7,GGAGCCUAUACUGAUUUAUTT against Tomm7,active: 2.13
8,GGUUUGCUUUUCGUAUCUATT against Ppp3r1,inactive: -0.367
9,GGGUGACAUGGUGACCAUCTT against Matk,active: 3.54
10,GGUCAAGAAGUAUUUUGUCTT against Fbxo6,inactive: -0.83
11,GCUAGAACAGAAAAGAACCTT against Kcnb1,inactive: 0.13
12,GGAAGGGAGACAAAAUAUATT against Cnpy1,inactive: -1.38
13,GGACAAAGAAACUCAUAGGTT against A530021J07Rik,inactive: 0.737
14,GGUCAAAUCACUGAGUUUUTT against 9530080O11Rik,inactive: 1.74
15,CCAUAAAAACCAGAGAAAUTT against Plekhf2,inactive: -0.778
16,GCCUUAUCCAUAUCGACUATT against Arrdc1,inactive: 0.831
17,GCUCGUACAGAAAUACGUCTT against Psmc2,inactive: 0.521
18,GCCCUAAUCUAUGGGACAUTT against Tmem179,active: 3.06
19,GGAAAGCUAAUUUUGAAACTT against Cnep1r1,inactive: -1.02
20,CGACAUGGGAUUUGGCUUGTT against Rplp2,inactive: 0.613
21,GGAGUCUUUUGCAUAUUUUTT against Trav3-3,inactive: -1.04
22,GGUCUACGUGGCCAAAGUGTT against Txndc5,inactive: 0.222

row,Sequence,z-score
1,GGAUGAGGAUGGCUAUAAGTT against Zc3h10,inactive: 0.585
2,GCUAACGAUAUUUAUCACGTT against Olfr385,inactive: -0.474
3,GGGAGAGAGAAAUUCAUAATT against Mtpn,inactive: -1.14
4,GCGCAUGGUGCAGAACCUATT against Krt12,inactive: 0.31
5,CCUUUUUGGGUUGCUCUGUTT against Slc39a1,inactive: -1.55
6,GGUCCGGUGAAAGGAUUUUTT against Spag11a,inactive: 1.14
7,GGAAGCAUUAUUGGUCAAUTT against Tcf7l1,inactive: 1.42
8,GGAAAUAAUCAGGUUUAUCTT against Col4a3,inactive: -0.0485
9,GGAAACAGAACAAGAUGUATT against Tnfsf13b,inactive: -0.0717
10,CCUGGCAGUAAUCACCAUUTT against Olfr1158,inactive: -0.117
11,GGGCAAUUAGUAAAGGCUATT against Eif2s3x,active: 2.02
12,GGAGGUGGAUCAUAUGACUTT against Lrrc45,inactive: 0.882
13,GGACAGUCUUUAGCUGAAATT against Slc2a10,inactive: 1.51
14,GGAUAUCGAAGUGACAUCUTT against Rae1,inactive: -0.0796
15,GCGUGUCCUAUAGCAUCUGTT against Cela1,inactive: -0.106
16,GGAAAUGUGUGAAAUAACCTT against Ube2k,inactive: 0.854
17,CGAAAACAGUUAGUUACCATT against Exog,inactive: 0.644
18,GGUCUUAUCAAGAAGUGUATT against Cpt1b,inactive: 0.883
19,GGACAUAAUGCAAAACAUUTT against Dym,inactive: 0.199
20,CCUCUAGGUCAUUUUACCUTT against Scmh1,inactive: -0.573
21,CCACCGUCUAUUUCAUUGUTT against Adora3,inactive: 1.01
22,CGCUGGUGGUAUAACCAAGTT against Wfdc6b,inactive: -1.06

row,Sequence,z-score
1,GGACUGUGACCUCAAAAAGTT against Ppp1r17,inactive: 0.428
2,GGAUAAUGACCAACCUUCUTT against Fbxo7,inactive: -1.11
3,GGGCCAUUCAAACCACCAGTT against Vav3,inactive: -1.37
4,GGCACAGGUUCCUUUUGAATT against Myct1,inactive: -0.759
5,GGUUUUGUUACAAUAAAGGTT against Fbxl6,inactive: -0.29
6,GGGAUUUUUUGUUGCCAUCTT against Pth1r,inactive: -0.115
7,CCAACCAAAUCGUCGCCAUTT against Cdk7,inactive: -1.15
8,GGAGAGCUGGAACAAUAGCTT against Bcl2l2,active: 2.26
9,GGACUUUCUUCCAUCAAAUTT against Cilk1,inactive: 1.7
10,GGUGGUCUGGUUCAAGGAUTT against Mylk,inactive: 0.682
11,GGGCCAAGUUCCGAAAGAATT against Dmbx1,inactive: -0.443
12,GGGAUUGAAUCUUCUUCGCTT against Klhl28,inactive: -0.349
13,CCGAAUGUGGAUGUGAUGATT against Sycp2,inactive: -0.464
14,GCUGAAGUUUACUAUAACATT against Marco,inactive: 0.565
15,GGACCUAAACUGUCAGGAGTT against Eif3g,inactive: 0.15
16,CCUCUGAGUGAUACACUGUTT against Klk1b9,inactive: -0.477
17,CCUUCAGAAGUCGACUUGUTT against Rpl37,inactive: 0.779
18,GGGCAGAAAAUCAUUUGUUTT against Anxa11,inactive: 0.0839
19,GGAGAUCCAGGCAAUUUUUTT against Pink1,inactive: 0.779
20,GGUCCUACAGGAGAAGAUCTT against Tekt2,active: -2.09
21,GCAUAAAACACUAAGGAAATT against Csn3,inactive: -0.00366
22,GGCCUGCAUAGAUGAGAACTT against Ppp1r12c,inactive: 0.147

row,Sequence,z-score
1,GGACACAUUCGAAUGAACCTT against Mkrn2,inactive: 0.0809
2,GGAGAAAGCUCAGCAUACATT against Usp3,inactive: -0.484
3,GGAAAUGAGCAAAACUUUUTT against Pcdhb22,inactive: 0.966
4,GGUCGUUACAGAAGAGUUUTT against Mageh1,inactive: 1.48
5,GGGUAUUGAUCAUUUUUGGTT against Rasal3,inactive: -1.99
6,GGUUUGAGAAUUUGAAGGUTT against Map2k3os,inactive: 0.273
7,GGUUGUAGGUUAUAGCUGUTT against Dusp26,inactive: 0.651
8,GGUGUCAUUCACAAAAACUTT against Csnk1g1,inactive: -1.09
9,GCAAGAAGUGGAGUAUUUUTT against Alkbh2,inactive: 0.369
10,CCUUGAUCAUUUUAAUUGGTT against Olfr913,inactive: -0.612
11,GGCUCAGAACCUUCUGAAATT against Exoc7,inactive: -0.443
12,GGUUACCCAUGCAGUUGUUTT against Hspa5,inactive: -0.24
13,GGAUGAUAUUCUCAAGUUCTT against Psg26,inactive: 0.00514
14,GCUAAUUAAACGAAGCAUCTT against Lmo4,inactive: 0.67
15,GGUGUGUUACUGAUGAUUCTT against Olfr669,inactive: -0.37
16,GGAGAUCUAACUCUGUAUGTT against Hpse,inactive: -0.2
17,GGUACCAACACAAGUAACATT against Dyrk1a,inactive: -0.449
18,GGACAGCCUUGUGUCAAAATT against Ramp2,inactive: 0.295
19,GGCCUGAAAGACGAAGAGATT against Stk38,inactive: -0.0215

# Shown bar-delimited: part of the list above
row | Sequence | z-score
8 | GGUUUGCUUUUCGUAUCUATT against Ppp3r1 | inactive: -0.367
9 | GGGUGACAUGGUGACCAUCTT against Matk | active: 3.54

# Laid out differently: results already given.
row | Sequence | z-score
5 | GCAGCUACGUAUACCAUGUTT against Gfm1 | inactive: -0.788
6 | GGAGCAAUGUGUUUUCUCUTT against Ppnr | inactive: -1.36

# — PubChem BioAssay AID1508600 (Functional Genomics Laboratory (NCATS/FGL), 2020)
